PubChem BioAssay AID743121 – NCATS, 2013

Test: 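Knock-downs that sensitise breast cancer cells to camptothecin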 (primary screen)
Cells: MDA-MB-231 cells, a human breast cancer line
Reagents: single siRNA against human genes, 20 nM siRNA (0.8 pmol per well)
Time to read-out: 120 h (drug added 48 h after transfection, read 72 h later)
Treatment: camptothecin 20 nM (about EC30) for 72 h; vehicle 0.1% DMSO in parallel plates
Detection: 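CellTiter-Glo ATP signal, scaled to control siRNA as percent viability; sensitisation given as log2 of untreated divided by camptothecin-treated viability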
Scale: log2 vehicle/camptothecin viability: higher = stronger sensitisation to camptothecin
Hit rule: 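Each gene scored by redundant siRNA activity (RSA) over its individual siRNA ratios; a gene is called active at p < 0.001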
Shown is one part, drawn at random, of about 26,000 reagents. Over the whole deposit, 167 (0.63%) are marked active. 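Calls are per gene from RSA p-values that are not deposited; an individual active-marked siRNA can sensitise only weakly.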 Unmarked entries are inactive. Reagents against one gene are numbered here. Further read-outs or replicates are left out here.

AKR1A1 (aldo-keto reductase family 1 member A1) #1 | log2 vehicle/camptothecin viability = -0.31
AKR1A1 (aldo-keto reductase family 1 member A1) #2 | log2 vehicle/camptothecin viability = -0.197
AKR1A1 (aldo-keto reductase family 1 member A1) #3 | log2 vehicle/camptothecin viability = -0.674
AKR1A1 (aldo-keto reductase family 1 member A1) #4 | log2 vehicle/camptothecin viability = -0.596
LRP1B (LDL receptor related protein 1B) #1 | log2 vehicle/camptothecin viability = 0.0847
LRP1B (LDL receptor related protein 1B) #2 | log2 vehicle/camptothecin viability = -0.411
LRP1B (LDL receptor related protein 1B) #3 | log2 vehicle/camptothecin viability = -0.192
LRP1B (LDL receptor related protein 1B) #4 | log2 vehicle/camptothecin viability = -0.143

Individual results from the list:
Under “log2 vehicle/camptothecin viability”, LRP1B (LDL receptor related protein 1B) #4 is entered as -0.143
Result for LRP1B (LDL receptor related protein 1B) #2 under “log2 vehicle/camptothecin viability”: -0.411

Additional results follow.
ABAT (4-aminobutyrate aminotransferase) #1 | log2 vehicle/camptothecin viability = -0.567
ABAT (4-aminobutyrate aminotransferase) #2 | log2 vehicle/camptothecin viability = -0.00199
ABAT (4-aminobutyrate aminotransferase) #3 | log2 vehicle/camptothecin viability = -0.0847
ABAT (4-aminobutyrate aminotransferase) #4 | log2 vehicle/camptothecin viability = -0.314
FKBP5 (FKBP prolyl isomerase 5) #1 | log2 vehicle/camptothecin viability = 0.533
FKBP5 (FKBP prolyl isomerase 5) #2 | log2 vehicle/camptothecin viability = -0.247
FKBP5 (FKBP prolyl isomerase 5) #3 | log2 vehicle/camptothecin viability = -0.569
FKBP5 (FKBP prolyl isomerase 5) #4 | log2 vehicle/camptothecin viability = -0.016
